From paper PMC10004634 (PLOS ONE, 2023)

System: TMD8 xenograft tumor
Assay: Gene expression microarray analysis of TMD8 xenograft tumors
Conditions: geometric mean

## CC#CC(=O)N1CC[C@@H](n2c(=O)n(-c3ccc(Oc4ccccc4)cc3)c3c(N)ncnc32)C1 [Tirabrutinib]
3 mg/kg
  tirabrutinib 3 (mean) expression value ALOX5: 14465.9
  tirabrutinib 3 (mean) expression value CAMK2B: 502.5
  tirabrutinib 3 (mean) expression value ELL2: 1080.8
  tirabrutinib 3 (mean) expression value EMP2: 299.5
  tirabrutinib 3 (mean) expression value MYBPH: 561.7
10 mg/kg
  tirabrutinib 10 (mean) expression value ATF3: 1953.7
  tirabrutinib 10 (mean) expression value DKFZp686O1327: 134.0
  tirabrutinib 10 (mean) expression value NFATC1: 619.0
  tirabrutinib 10 (mean) expression value TNFRSF17: 64.9
  tirabrutinib 10 (mean) expression value ZNF831: 43.6
